The supplement of paper PMC10849652
The list shows a part of the results.

Protein sequences, listed by entry. Tags and fused reporters are not part of them. Lines headed by an entry give the natural chain unless they say otherwise; changes in a name come on top.
UniProt O95721: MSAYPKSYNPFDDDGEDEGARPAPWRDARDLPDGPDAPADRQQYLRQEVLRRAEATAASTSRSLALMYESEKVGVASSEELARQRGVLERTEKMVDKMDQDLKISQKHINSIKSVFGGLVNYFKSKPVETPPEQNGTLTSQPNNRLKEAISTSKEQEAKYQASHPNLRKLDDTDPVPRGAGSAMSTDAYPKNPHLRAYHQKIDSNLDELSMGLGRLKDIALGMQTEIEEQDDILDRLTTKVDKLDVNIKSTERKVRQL
UniProt P62308, whole entry, looked up: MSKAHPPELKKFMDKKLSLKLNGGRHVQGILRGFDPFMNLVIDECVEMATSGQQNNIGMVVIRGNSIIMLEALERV
UniProt P04179: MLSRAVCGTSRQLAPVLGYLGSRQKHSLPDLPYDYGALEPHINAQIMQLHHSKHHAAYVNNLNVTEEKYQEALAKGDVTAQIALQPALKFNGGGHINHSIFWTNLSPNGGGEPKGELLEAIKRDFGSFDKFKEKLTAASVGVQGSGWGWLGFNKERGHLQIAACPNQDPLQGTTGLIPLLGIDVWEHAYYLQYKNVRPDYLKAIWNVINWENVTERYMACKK
UniProt Q00796: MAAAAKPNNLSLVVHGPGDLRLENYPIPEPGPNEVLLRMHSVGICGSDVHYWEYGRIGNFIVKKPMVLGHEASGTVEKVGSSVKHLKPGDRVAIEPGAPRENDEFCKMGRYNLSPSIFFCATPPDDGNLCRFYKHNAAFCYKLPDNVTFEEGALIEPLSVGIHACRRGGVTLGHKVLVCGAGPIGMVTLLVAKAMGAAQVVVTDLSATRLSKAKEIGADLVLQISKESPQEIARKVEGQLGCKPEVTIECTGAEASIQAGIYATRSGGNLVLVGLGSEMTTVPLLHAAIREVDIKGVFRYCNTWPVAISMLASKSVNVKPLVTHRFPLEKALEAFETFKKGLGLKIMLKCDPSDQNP
UniProt Q16637, whole entry, looked up: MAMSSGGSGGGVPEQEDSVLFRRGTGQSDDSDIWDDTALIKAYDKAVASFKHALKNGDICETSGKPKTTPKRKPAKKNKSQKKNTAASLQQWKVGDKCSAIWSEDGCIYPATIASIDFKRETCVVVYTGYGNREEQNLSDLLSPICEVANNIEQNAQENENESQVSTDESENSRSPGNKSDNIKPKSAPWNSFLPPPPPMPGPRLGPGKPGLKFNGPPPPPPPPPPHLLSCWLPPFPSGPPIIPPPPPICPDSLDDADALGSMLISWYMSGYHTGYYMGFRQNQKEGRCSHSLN
UniProt O75391: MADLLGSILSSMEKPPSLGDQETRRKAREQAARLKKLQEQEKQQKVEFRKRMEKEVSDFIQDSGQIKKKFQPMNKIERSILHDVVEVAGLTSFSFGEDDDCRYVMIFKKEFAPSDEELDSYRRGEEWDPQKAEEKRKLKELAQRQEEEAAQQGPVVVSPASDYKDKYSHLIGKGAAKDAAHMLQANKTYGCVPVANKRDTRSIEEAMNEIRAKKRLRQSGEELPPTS
UniProt Q96H20: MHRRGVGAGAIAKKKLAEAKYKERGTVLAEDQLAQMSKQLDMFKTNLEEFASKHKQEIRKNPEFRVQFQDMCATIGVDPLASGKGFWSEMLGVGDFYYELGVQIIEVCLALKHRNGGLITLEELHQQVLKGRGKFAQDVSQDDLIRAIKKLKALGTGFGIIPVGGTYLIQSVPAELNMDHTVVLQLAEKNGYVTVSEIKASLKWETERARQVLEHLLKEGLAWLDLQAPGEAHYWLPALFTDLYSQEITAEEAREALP
UniProt Q15506: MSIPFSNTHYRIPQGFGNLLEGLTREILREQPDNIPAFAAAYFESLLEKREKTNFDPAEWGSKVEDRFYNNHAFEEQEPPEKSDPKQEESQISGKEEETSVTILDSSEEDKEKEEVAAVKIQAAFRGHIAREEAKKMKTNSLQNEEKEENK
UniProt Q92922, whole entry, looked up: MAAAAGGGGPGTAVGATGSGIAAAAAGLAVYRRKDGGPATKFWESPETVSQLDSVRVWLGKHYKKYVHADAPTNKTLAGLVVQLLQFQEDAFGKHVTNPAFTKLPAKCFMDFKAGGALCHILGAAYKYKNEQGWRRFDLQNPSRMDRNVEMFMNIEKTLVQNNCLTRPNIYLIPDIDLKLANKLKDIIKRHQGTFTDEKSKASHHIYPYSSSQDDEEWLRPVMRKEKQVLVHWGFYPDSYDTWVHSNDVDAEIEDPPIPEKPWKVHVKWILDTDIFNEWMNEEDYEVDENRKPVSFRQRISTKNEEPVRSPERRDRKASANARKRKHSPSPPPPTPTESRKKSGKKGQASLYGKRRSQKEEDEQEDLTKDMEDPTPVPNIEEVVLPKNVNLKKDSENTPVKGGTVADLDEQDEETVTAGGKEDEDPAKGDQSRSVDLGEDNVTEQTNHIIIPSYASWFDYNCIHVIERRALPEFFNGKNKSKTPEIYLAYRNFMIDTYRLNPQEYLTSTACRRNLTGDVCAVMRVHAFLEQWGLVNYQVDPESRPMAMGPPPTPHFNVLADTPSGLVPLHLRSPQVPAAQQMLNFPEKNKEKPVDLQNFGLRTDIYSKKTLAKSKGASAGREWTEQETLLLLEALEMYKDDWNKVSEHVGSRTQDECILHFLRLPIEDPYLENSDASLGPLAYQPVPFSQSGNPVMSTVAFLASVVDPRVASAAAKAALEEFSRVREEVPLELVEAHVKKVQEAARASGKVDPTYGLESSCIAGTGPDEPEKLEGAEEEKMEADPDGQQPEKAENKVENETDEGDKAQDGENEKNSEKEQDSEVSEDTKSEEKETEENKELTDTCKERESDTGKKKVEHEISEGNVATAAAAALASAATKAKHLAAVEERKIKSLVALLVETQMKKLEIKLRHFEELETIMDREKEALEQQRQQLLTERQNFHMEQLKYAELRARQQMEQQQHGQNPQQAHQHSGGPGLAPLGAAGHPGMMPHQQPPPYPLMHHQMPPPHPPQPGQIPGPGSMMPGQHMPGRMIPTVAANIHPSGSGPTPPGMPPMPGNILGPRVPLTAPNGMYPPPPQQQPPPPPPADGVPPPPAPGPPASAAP
UniProt Q9NTJ3, whole entry, looked up: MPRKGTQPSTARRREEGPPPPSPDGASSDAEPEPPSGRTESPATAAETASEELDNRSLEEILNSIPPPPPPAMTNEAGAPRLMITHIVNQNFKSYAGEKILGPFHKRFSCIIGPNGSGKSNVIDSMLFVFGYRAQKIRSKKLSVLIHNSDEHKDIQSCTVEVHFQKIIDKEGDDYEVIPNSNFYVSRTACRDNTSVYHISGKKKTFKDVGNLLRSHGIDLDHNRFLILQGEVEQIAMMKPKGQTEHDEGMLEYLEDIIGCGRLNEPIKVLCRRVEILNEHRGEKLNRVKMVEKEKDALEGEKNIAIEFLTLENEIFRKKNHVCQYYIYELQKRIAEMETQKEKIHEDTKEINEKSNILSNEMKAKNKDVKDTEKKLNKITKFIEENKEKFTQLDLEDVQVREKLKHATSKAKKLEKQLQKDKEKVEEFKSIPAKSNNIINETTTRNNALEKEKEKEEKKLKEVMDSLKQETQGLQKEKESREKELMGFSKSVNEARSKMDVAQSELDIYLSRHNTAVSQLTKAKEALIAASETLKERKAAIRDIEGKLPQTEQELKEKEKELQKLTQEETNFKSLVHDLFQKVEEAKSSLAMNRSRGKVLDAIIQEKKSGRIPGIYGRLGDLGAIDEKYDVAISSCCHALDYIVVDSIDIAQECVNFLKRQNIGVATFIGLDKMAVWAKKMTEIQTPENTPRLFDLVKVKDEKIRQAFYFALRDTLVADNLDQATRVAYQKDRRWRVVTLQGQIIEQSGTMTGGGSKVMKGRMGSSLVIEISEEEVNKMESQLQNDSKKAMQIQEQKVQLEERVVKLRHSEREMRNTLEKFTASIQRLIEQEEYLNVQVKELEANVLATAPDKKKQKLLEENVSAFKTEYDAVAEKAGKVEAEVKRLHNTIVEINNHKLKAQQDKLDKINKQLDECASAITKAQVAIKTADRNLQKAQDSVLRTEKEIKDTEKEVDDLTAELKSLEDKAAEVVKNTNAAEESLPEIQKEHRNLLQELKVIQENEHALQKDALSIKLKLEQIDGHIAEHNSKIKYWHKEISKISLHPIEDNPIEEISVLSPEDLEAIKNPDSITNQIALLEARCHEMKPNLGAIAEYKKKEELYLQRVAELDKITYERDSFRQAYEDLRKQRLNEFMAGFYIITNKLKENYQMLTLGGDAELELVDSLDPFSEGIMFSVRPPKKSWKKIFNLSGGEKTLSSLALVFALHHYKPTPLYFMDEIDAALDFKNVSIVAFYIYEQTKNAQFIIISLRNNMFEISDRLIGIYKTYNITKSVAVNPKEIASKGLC
UniProt O75643, whole entry, looked up: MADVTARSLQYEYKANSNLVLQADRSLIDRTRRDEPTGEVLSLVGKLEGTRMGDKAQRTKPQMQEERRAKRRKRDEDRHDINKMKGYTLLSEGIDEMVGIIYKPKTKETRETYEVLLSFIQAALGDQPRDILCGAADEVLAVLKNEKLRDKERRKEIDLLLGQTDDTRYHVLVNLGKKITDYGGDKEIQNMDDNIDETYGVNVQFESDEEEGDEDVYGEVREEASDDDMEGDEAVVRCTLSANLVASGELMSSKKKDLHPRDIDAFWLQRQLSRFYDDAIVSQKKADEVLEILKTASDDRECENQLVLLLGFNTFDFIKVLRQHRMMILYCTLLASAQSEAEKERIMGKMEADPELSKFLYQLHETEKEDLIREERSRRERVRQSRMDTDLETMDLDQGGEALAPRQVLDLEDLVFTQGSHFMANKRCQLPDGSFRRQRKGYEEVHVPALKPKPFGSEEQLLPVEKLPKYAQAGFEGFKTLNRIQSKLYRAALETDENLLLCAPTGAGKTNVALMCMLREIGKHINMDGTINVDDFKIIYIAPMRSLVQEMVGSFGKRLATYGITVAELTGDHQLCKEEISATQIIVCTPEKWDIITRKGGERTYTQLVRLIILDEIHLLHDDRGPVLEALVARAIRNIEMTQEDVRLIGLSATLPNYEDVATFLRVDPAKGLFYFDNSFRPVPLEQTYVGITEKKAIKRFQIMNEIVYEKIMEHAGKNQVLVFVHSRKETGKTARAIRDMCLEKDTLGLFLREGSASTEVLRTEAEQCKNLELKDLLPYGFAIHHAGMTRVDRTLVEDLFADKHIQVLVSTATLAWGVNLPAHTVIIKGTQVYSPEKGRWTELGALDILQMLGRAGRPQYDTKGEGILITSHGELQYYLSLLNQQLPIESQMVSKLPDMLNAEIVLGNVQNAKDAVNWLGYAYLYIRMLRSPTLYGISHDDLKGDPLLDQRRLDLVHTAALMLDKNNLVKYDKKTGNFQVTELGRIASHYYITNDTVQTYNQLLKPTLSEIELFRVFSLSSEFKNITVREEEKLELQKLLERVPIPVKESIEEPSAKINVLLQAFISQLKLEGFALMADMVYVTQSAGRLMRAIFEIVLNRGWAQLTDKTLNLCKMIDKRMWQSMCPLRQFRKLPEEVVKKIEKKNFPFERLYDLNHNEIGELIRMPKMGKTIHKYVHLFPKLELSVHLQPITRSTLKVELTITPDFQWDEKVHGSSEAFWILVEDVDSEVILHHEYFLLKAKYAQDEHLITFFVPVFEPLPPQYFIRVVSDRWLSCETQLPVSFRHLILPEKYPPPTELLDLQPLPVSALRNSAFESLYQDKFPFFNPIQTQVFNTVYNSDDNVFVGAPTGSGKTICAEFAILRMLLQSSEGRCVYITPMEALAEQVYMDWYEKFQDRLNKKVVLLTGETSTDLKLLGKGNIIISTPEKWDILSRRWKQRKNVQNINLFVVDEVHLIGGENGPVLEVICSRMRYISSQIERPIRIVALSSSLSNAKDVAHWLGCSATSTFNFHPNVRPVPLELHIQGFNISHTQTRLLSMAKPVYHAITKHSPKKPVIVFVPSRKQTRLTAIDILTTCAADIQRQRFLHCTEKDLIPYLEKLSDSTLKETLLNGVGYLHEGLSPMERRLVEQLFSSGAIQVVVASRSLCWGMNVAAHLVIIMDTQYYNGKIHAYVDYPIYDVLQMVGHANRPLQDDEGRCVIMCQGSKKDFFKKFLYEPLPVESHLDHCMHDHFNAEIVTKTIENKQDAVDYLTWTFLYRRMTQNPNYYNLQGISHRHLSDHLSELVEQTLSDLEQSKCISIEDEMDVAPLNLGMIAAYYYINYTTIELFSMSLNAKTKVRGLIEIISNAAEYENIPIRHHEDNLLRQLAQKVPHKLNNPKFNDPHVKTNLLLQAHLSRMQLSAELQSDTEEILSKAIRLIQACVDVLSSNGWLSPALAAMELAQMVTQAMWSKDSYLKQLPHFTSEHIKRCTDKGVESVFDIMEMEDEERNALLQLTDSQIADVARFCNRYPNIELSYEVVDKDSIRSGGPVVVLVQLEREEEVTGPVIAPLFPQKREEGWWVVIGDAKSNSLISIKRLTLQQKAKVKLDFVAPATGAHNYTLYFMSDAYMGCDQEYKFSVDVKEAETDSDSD
UniProt P62304, whole entry, looked up: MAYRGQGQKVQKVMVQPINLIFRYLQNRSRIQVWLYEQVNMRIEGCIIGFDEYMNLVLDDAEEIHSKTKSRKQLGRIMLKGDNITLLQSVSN

Assays:
Assay in all cases: log2 fold change, soluble protein after heating vs DMSO (PISA); higher = thermal stabilisation; K562 cells, 10 uM, 30 min; active = over 0.2 and 3.5 SD of the protein, either way, in both replicates (recomputed)
[1] = compound: CC1=C(C=C(C=C1)NC(=O)C2=CC(=CC=C2)C(C)(C)C#N)NC3=CC4=C(C=C3)N=CN(C4=O)C
Procedure, shortened: (§1)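 K562 cells (2×10^6 cells/mL) were treated with 10 μM compound for 30 min, and aliquots were heated for 3 min over 48°C-58°C. Pooled aliquots were extracted in PBS with 0.5% NP-40 at 4°C, and the supernatant after 21,000xg for 90 min was measured by TMTpro 16plex LC-MS/MS with channel sums equalised. Reported thermal stability, relative to control samples and from duplicates, is a log2 fold change.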

[2] = compound: CC1=C(C=C(C=C1)NC(=O)C2=CC(=CC=C2)N(C)C)NC(=O)C3=CC=C(C=C3)O
Procedure, shortened: as §1

[3] = compound: CC1=CC=C(C=C1)SC2=C3C=C(SC3=CN=C2)C(=O)N
Procedure, shortened: as §1

[4] = compound: CC1=NC(=CC=C1)C2=C(N=C(N2)C(C)(C)C)C3=CC4=NC=CN=C4C=C3
Procedure, shortened: as §1

[5] = compound: CCCCN(Cc1ccc(C(=O)NO)cc1)C(=O)Nc1ccccc1 [Nexturastat A]
Procedure, shortened: as §1

[6] = compound: CCCS(=O)(=O)Nc1ccc(F)c(C(=O)c2c[nH]c3ncc(-c4ccc(Cl)cc4)cc23)c1F [vemurafenib]
Procedure, shortened: as §1

[7] = compound: CCCS(=O)(=O)Nc1ccc(F)c(C(=O)c2c[nH]c3ncc(Cl)cc23)c1F
Procedure, shortened: as §1

[8] = compound: CCCc1cc(C)[nH]c(=O)c1CNC(=O)c1cc(-c2ccnc(N3CCN(C)CC3)c2)cc2c1cnn2C(C)C
Procedure, shortened: as §1

[9] = compound: CCN(CC)Cc1ccc2cc(COC(=O)Nc3ccc(C(=O)NO)cc3)ccc2c1 [givinostat]
Procedure, shortened: as §1

[10] = compound: CCN(CCCOc1ccc2c(Nc3cc(CC(=O)Nc4cccc(F)c4)[nH]n3)ncnc2c1)CCOP(=O)(O)O [barasertib]
Procedure, shortened: as §1

[11] = compound: CC[C@@H]1C(=O)N(C)c2cnc(Nc3ccc(C(=O)NC4CCN(C)CC4)cc3OC)nc2N1C1CCCC1
Procedure, shortened: as §1

[12] = compound: CC[C@@H]1C(=O)N(C)c2cnc(Nc3ccc(C(=O)N[C@H]4CC[C@H](N5CCN(CC6CC6)CC5)CC4)cc3OC)nc2N1C(C)C [volasertib]
Procedure, shortened: as §1

[13] = compound: CC[C@H](C)N1C=C(C2=C(C=C(C=C21)C3=CN=C(C=C3)N4CCNCC4)C(=O)NCC5=C(C=C(NC5=O)C)C)C
Procedure, shortened: as §1

[14] = compound: CC[C@H](C)[C@@H](C(=O)N[C@@H]([C@@H](C)O)C(=O)N[C@@H](CC(C)C)C(=O)[C@]1(CO1)C)NC(=O)[C@H]([C@@H](C)CC)N(C)C(=O)C [epoxomicin]
Procedure, shortened: as §1

[15] = compound: CCn1c(C(=O)N(C2CC2)C2CC2)cc2c3c(ncn3C)c(Nc3cc(C)n(C)n3)nc21
Procedure, shortened: as §1

[16] = compound: CCn1cc(-c2ccnc3[nH]c(-c4cccc(CN(C)C)c4)cc23)c(-c2ccc(NC(=O)N(C)C)cc2)n1
Procedure, shortened: as §1

[17] = compound: CN(C)CC(=O)Nc1ccc2[nH]c(=O)c3ccccc3c2c1
Procedure, shortened: as §1

[18] = compound: CN(CCOC1=CC=C(C=C1)C[C@H]2C(=O)NC(=O)S2)C3=CC=CC=N3 (racemic) [rosiglitazone]
Procedure, shortened: as §1

[19] = compound: CN1C2=C(C3=C1C(=O)N(N=C3)CC4=CC(=CC=C4)N)SC(=C2)S(=O)C
Procedure, shortened: as §1

[20] = compound: CN1CCC(CNc2ccc3ncc(-c4cccc(OC(F)(F)F)c4)n3n2)CC1
Procedure, shortened: as §1

Measured: log2 fold change

SNAP29 (UniProt O95721)
inactive: [1] 0.032 | [2] 0.017 | [3] 0.023 | [4] 0.038 | [5] -0.082 | [6] -0.027 | [7] -0.021 | [8] -0.006 | [9] -0.008 | [10] 0.009 | [11] -0.013 | [12] 0.052 | [13] -0.028 | [14] 0 | [15] 0.022 | [16] 0.038 | [17] -0.024 | [18] 0.003 | [19] -0.036 | [20] -0.065

SNRPG (UniProt P62308)
inactive: [1] 0.007 | [2] -0.003 | [3] -0.001 | [4] -0.074 | [5] 0.04 | [6] -0.032 | [7] -0.05 | [8] -0.07 | [9] -0.05 | [10] -0.012 | [11] 0.069 | [12] 0.118 | [13] -0.111 | [14] -0.112 | [15] 0.026 | [16] 0.025 | [17] 0.058 | [18] -0.001 | [19] 0.07 | [20] 0.099

SOD2 (UniProt P04179)
inactive: [1] -0.043 | [2] 0.034 | [3] -0.018 | [4] 0.002 | [5] 0.005 | [6] 0.047 | [7] -0.01 | [8] -0.016 | [9] -0.036 | [10] -0.013 | [11] 0.035 | [12] 0.126 | [13] -0.001 | [14] -0.075 | [15] -0.004 | [16] 0.034 | [17] -0.039 | [18] -0.02 | [19] -0.014 | [20] 0.147

SORD (UniProt Q00796)
inactive: [1] -0.032 | [2] 0.001 | [3] 0.022 | [4] -0.004 | [5] -0.035 | [6] 0.009 | [7] 0.004 | [8] -0.024 | [9] -0.121 | [10] 0.007 | [11] 0.047 | [12] 0.049 | [13] -0.03 | [14] 0.017 | [15] 0.022 | [16] -0.015 | [17] -0.02 | [18] 0.014 | [19] -0.072 | [20] -0.019

SMN1 (UniProt Q16637)
inactive: [1] -0.129 | [2] 0.046 | [3] 0.014 | [4] 0.043 | [5] 0.192 | [6] 0.022 | [7] 0.102 | [8] -0.071 | [9] 0.085 | [10] -0.095 | [11] -0.211 | [12] -0.37 | [13] 0.078 | [14] 0.026 | [15] -0.071 | [16] -0.001 | [17] -0.052 | [18] 0.013 | [19] 0.207 | [20] -0.052

SPAG7 (UniProt O75391)
inactive: [1] 0.007 | [2] -0.003 | [3] 0.004 | [4] 0 | [5] -0.012 | [6] -0.005 | [7] -0.024 | [8] -0.053 | [9] 0.015 | [10] -0.022 | [11] 0.027 | [12] 0.017 | [13] -0.008 | [14] 0.046 | [15] -0.024 | [16] -0.041 | [17] -0.069 | [18] 0.009 | [19] -0.005 | [20] -0.002

SNU13, A0A3B3IUA2
inactive: [1] -0.052 | [2] 0.063 | [3] -0.041 | [4] -0.033 | [5] -0.015 | [6] -0.112 | [7] -0.11 | [8] -0.032 | [9] 0.046 | [10] 0.035 | [11] 0.097 | [12] 0.038 | [13] -0.168 | [14] -0.045 | [15] -0.027 | [16] 0.1 | [17] -0.063 | [18] 0.015 | [19] -0.028 | [20] -0.15

2 successive records already listed:
SMN1 (UniProt Q16637)
inactive: [1] -0.129 | [2] 0.046 | [3] 0.014 | [4] 0.043 | [5] 0.192 | [6] 0.022 | [7] 0.102 | [8] -0.071 | [9] 0.085 | [10] -0.095 | [11] -0.211 | [12] -0.37 | [13] 0.078 | [14] 0.026 | [15] -0.071 | [16] -0.001 | [17] -0.052 | [18] 0.013 | [19] 0.207 | [20] -0.052

SPAG7 (UniProt O75391)
inactive: [1] 0.007 | [2] -0.003 | [3] 0.004 | [4] 0 | [5] -0.012 | [6] -0.005 | [7] -0.024 | [8] -0.053 | [9] 0.015 | [10] -0.022 | [11] 0.027 | [12] 0.017 | [13] -0.008 | [14] 0.046 | [15] -0.024 | [16] -0.041 | [17] -0.069 | [18] 0.009 | [19] -0.005 | [20] -0.002

Additional records follow:

SNF8 (UniProt Q96H20)
inactive: [1] 0.017 | [2] -0.034 | [3] -0.031 | [4] 0.075 | [5] -0.031 | [6] 0.001 | [7] -0.03 | [8] -0.029 | [9] 0.004 | [10] 0.026 | [11] 0.028 | [12] -0.029 | [13] -0.02 | [14] 0.004 | [15] 0.008 | [16] 0.008 | [17] -0.021 | [18] -0.023 | [19] -0.076 | [20] -0.042

SPA17 (UniProt Q15506)
inactive: [1] -0.114 | [2] 0.059 | [3] -0.07 | [4] -0.064 | [5] -0.044 | [6] -0.049 | [7] 0.014 | [8] -0.029 | [9] -0.03 | [10] -0.051 | [11] 0.024 | [12] 0.043 | [13] -0.005 | [14] 0.155 | [15] 0.04 | [16] 0.025 | [17] -0.043 | [18] -0.038 | [19] 0.054 | [20] 0.059

SMARCC1 (UniProt Q92922)
inactive: [1] -0.098 | [2] -0.06 | [3] -0.038 | [4] -0.014 | [5] 0.112 | [6] 0.028 | [7] 0.051 | [8] 0.007 | [9] 0.299 | [10] 0.081 | [11] -0.111 | [12] -0.148 | [13] -0.12 | [14] 0.03 | [15] -0.124 | [16] 0.001 | [17] 0.098 | [18] 0.062 | [19] 0.164 | [20] 0.089

SNRPB isoform 3 (UniProt P14678)
inactive: [1] -0.009 | [2] 0.025 | [3] -0.039 | [4] -0.042 | [5] 0.065 | [6] -0.011 | [7] -0.05 | [8] -0.073 | [9] -0.019 | [10] -0.106 | [11] 0.158 | [12] 0.182 | [13] -0.078 | [14] -0.08 | [15] -0.015 | [16] 0.023 | [17] -0.022 | [18] -0.061 | [19] 0.071 | [20] 0.28

SND1 (UniProt Q7KZF4)
inactive: [1] 0.055 | [2] 0.129 | [3] -0.025 | [4] -0.181 | [5] 0.625 | [6] -0.024 | [7] -0.003 | [8] 0.22 | [9] 0.202 | [10] -0.032 | [11] 0.19 | [12] -0.042 | [13] 0.083 | [14] -0.396 | [15] 0.005 | [16] 0.29 | [17] 0.001 | [18] -0.088 | [19] 0.495 | [20] 0.128

SMC4 (UniProt Q9NTJ3)
inactive: [1] 0.01 | [2] -0.038 | [3] -0.001 | [4] -0.008 | [5] 0.039 | [6] 0.031 | [7] 0.049 | [8] 0.037 | [9] 0.046 | [10] 0.025 | [11] -0.076 | [12] -0.181 | [13] 0.063 | [14] -0.008 | [15] -0.013 | [16] -0.005 | [17] 0.017 | [18] 0.021 | [19] 0.037 | [20] -0.054

SNRNP200 (UniProt O75643)
inactive: [1] 0.034 | [2] -0.009 | [3] -0.066 | [4] -0.036 | [5] 0.04 | [6] -0.011 | [7] 0 | [8] -0.014 | [9] -0.017 | [10] -0.016 | [11] 0.078 | [12] 0.066 | [13] -0.018 | [14] -0.027 | [15] -0.008 | [16] -0.003 | [17] -0.025 | [18] 0.001 | [19] 0.037 | [20] 0.16

SNRPE (UniProt P62304)
inactive: [1] -0.016 | [2] 0.003 | [3] -0.052 | [4] -0.018 | [5] -0.036 | [6] -0.042 | [7] -0.035 | [8] -0.052 | [9] -0.032 | [10] -0.027 | [11] 0.135 | [12] 0.086 | [13] -0.026 | [14] -0.088 | [15] -0.013 | [16] 0.086 | [17] -0.038 | [18] -0.018 | [19] -0.01 | [20] 0.129
